The effect of the compound repeats well; differences between the knockouts mostly do not.
Experiments:
Test in all cases: relative cell number vs DMSO control (72 h) (% of DMSO); higher = less growth inhibition (more cells)
BT-20 = system: BT-20
Description: (§1)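 QMAP-Seq: a pool of 5 breast cancer cell lines (ZR-75-1, SKBR3, HCC-38, MDA-MB-231, BT-20), each carrying 12 doxycycline-inducible Cas9 sgRNA perturbations (11 knockouts plus non-targeting sgNT), was treated with compounds for 72 h at four 10-fold doses (10 nM-10 uM or 1 nM-1 uM range). Barcodes were amplified and sequenced, and cell number was interpolated from 293T spike-in standard curves. The result is expressed as % of the median of DMSO wells. Two biological replicates.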

SKBR3 = system: SKBR3
Description: as §1

ZR-75-1 = system: ZR-75-1
Description: as §1

CN(C)C/C=C/C(=O)Nc1cc2c(Nc3ccc(F)c(Cl)c3)ncnc2cc1O[C@H]1CCOC1 [Afatinib]
relative cell number
Conditions | BT-20 | SKBR3 | ZR-75-1
sgRNA knockout: sgATF3, 10 nM | 105 | 84 | 111
sgRNA knockout: sgATF3, 100 nM | 88.7 | 41.4 | 69.6
sgRNA knockout: sgATF3, 1000 nM | 77.6 | 23.4 | 77.3
sgRNA knockout: sgATF3, 10000 nM | 24 | 13 | 14.6
sgRNA knockout: sgATF4, 10 nM | 108 | 81.6 | 126
sgRNA knockout: sgATF4, 100 nM | 86 | 37.8 | 82.4
sgRNA knockout: sgATF4, 1000 nM | 89.7 | 28.2 | 106
sgRNA knockout: sgATF4, 10000 nM | 20.7 | 12.8 | 12.5
sgRNA knockout: sgATF6, 10 nM | 106 | 85.3 | 96.3
sgRNA knockout: sgATF6, 100 nM | 76.1 | 29.4 | 64.87
sgRNA knockout: sgATF6, 1000 nM | 68.3 | 29.7 | 69.7
sgRNA knockout: sgATF6, 10000 nM | 23.8 | 10.4 | 15.3
sgRNA knockout: sgATG7, 10 nM | 118 | 89 | 103
sgRNA knockout: sgATG7, 100 nM | 85.9 | 40.3 | 105
sgRNA knockout: sgATG7, 1000 nM | 71.2 | 20.6 | 57.5
sgRNA knockout: sgATG7, 10000 nM | 27.3 | 13.4 | 12.4
sgRNA knockout: sgERN1, 10 nM | 101 | 72.6 | 104
sgRNA knockout: sgERN1, 100 nM | 66.2 | 37.6 | 81.6
sgRNA knockout: sgERN1, 1000 nM | 73.7 | 23.1 | 60.5
sgRNA knockout: sgERN1, 10000 nM | 26.1 | 13.1 | 9.52
sgRNA knockout: sgHSF1, 10 nM | 102 | 84.4 | –
sgRNA knockout: sgHSF1, 100 nM | 75.2 | 35.6 | –
sgRNA knockout: sgHSF1, 1000 nM | 81.4 | 22.7 | –
sgRNA knockout: sgHSF1, 10000 nM | 25.9 | 11.9 | –
sgRNA knockout: sgHSF2, 10 nM | 90.3 | 74.9 | 104
sgRNA knockout: sgHSF2, 100 nM | 71.8 | 31.9 | 96.9
sgRNA knockout: sgHSF2, 1000 nM | 74.6 | 28.5 | 66.9
sgRNA knockout: sgHSF2, 10000 nM | 22.16 | 11 | 10.2
sgRNA knockout: sgKEAP1, 10 nM | 103 | 88.2 | –
sgRNA knockout: sgKEAP1, 100 nM | 76 | 29.4 | –
sgRNA knockout: sgKEAP1, 1000 nM | 79.6 | 27.8 | –
sgRNA knockout: sgKEAP1, 10000 nM | 23.4 | 13.7 | –
sgRNA knockout: sgNFE2L2, 10 nM | 113 | 88.7 | 103
sgRNA knockout: sgNFE2L2, 100 nM | 85 | 35.9 | 93.7
sgRNA knockout: sgNFE2L2, 1000 nM | 78.5 | 23.9 | 79.1
sgRNA knockout: sgNFE2L2, 10000 nM | 16.3 | 10.4 | 13
sgRNA knockout: sgSLC35F2, 10 nM | 108 | 82.8 | 142
sgRNA knockout: sgSLC35F2, 100 nM | 76.4 | 32.3 | 74.5
sgRNA knockout: sgSLC35F2, 1000 nM | 79.9 | 29.2 | 62.5
sgRNA knockout: sgSLC35F2, 10000 nM | 22.4 | 8.28 | 20.6
sgRNA knockout: sgXBP1, 10 nM | 91.4 | 104 | 95.5
sgRNA knockout: sgXBP1, 100 nM | 90.6 | 34.1 | 83.8
sgRNA knockout: sgXBP1, 1000 nM | 84.1 | 23.5 | 65.9
sgRNA knockout: sgXBP1, 10000 nM | 22.6 | 12.6 | 10.6

COc1cc(Nc2ncc3c(n2)-c2ccc(Cl)cc2C(c2c(F)cccc2OC)=NC3)ccc1C(=O)O [Alisertib]
relative cell number
Conditions | BT-20 | SKBR3 | ZR-75-1
sgRNA knockout: sgATF3, 10 nM | 112 | 120 | 92.9
sgRNA knockout: sgATF3, 100 nM | 74.7 | 79.4 | 42.8
sgRNA knockout: sgATF3, 1000 nM | 67.9 | 85.4 | 65.4
sgRNA knockout: sgATF3, 10000 nM | 65.6 | 89.6 | 64.2
sgRNA knockout: sgATF4, 10 nM | 112 | 116 | 102
sgRNA knockout: sgATF4, 100 nM | 90 | 71.96 | 47.7
sgRNA knockout: sgATF4, 1000 nM | 66.2 | 86.3 | 69
sgRNA knockout: sgATF4, 10000 nM | 60.2 | 69.5 | 61.3
sgRNA knockout: sgATF6, 10 nM | 108 | 105 | 99.3
sgRNA knockout: sgATF6, 100 nM | 70.4 | 90.6 | 26.7
sgRNA knockout: sgATF6, 1000 nM | 87.4 | 89.3 | 57.4
sgRNA knockout: sgATF6, 10000 nM | 67.5 | 72.1 | 46.2
sgRNA knockout: sgATG7, 10 nM | 104 | 94 | 89.7
sgRNA knockout: sgATG7, 100 nM | 89.8 | 64.6 | 35.7
sgRNA knockout: sgATG7, 1000 nM | 71.8 | 102.95 | 57.8
sgRNA knockout: sgATG7, 10000 nM | 67.9 | 70.1 | 37.7
sgRNA knockout: sgERN1, 10 nM | 105 | 138.4 | 84.86
sgRNA knockout: sgERN1, 100 nM | 78.5 | 75.3 | 46.6
sgRNA knockout: sgERN1, 1000 nM | 61.3 | 88.1 | 51.9
sgRNA knockout: sgERN1, 10000 nM | 71.9 | 78.5 | 39.8
sgRNA knockout: sgHSF1, 10 nM | 90.5 | 94.8 | –
sgRNA knockout: sgHSF1, 100 nM | 75.8 | 84.45 | –
sgRNA knockout: sgHSF1, 1000 nM | 80.7 | 77.4 | –
sgRNA knockout: sgHSF1, 10000 nM | 60.8 | 78.5 | –
sgRNA knockout: sgHSF2, 10 nM | 107 | 107 | 97.1
sgRNA knockout: sgHSF2, 100 nM | 70.3 | 69.9 | 51.1
sgRNA knockout: sgHSF2, 1000 nM | 76.7 | 88.4 | 45.4
sgRNA knockout: sgHSF2, 10000 nM | 67.8 | 66 | 51.7
sgRNA knockout: sgKEAP1, 10 nM | 95 | 102 | –
sgRNA knockout: sgKEAP1, 100 nM | 80 | 72.7 | –
sgRNA knockout: sgKEAP1, 1000 nM | 74.6 | 76.6 | –
sgRNA knockout: sgKEAP1, 10000 nM | 63.3 | 73.3 | –
sgRNA knockout: sgNFE2L2, 10 nM | 98.5 | 91.4 | 95.1
sgRNA knockout: sgNFE2L2, 100 nM | 61.9 | 76.5 | 39.2
sgRNA knockout: sgNFE2L2, 1000 nM | 83.41 | 75 | 39.2
sgRNA knockout: sgNFE2L2, 10000 nM | 65.3 | 69.3 | 54.5
sgRNA knockout: sgSLC35F2, 10 nM | 98.6 | 110 | 93
sgRNA knockout: sgSLC35F2, 100 nM | 78.27 | 78 | 31
sgRNA knockout: sgSLC35F2, 1000 nM | 74.9 | 90.6 | 51
sgRNA knockout: sgSLC35F2, 10000 nM | 63.8 | 72.9 | 59.3
sgRNA knockout: sgXBP1, 10 nM | 111 | 121 | 90.8
sgRNA knockout: sgXBP1, 100 nM | 79.6 | 70.3 | 36.1
sgRNA knockout: sgXBP1, 1000 nM | 77.9 | 102 | 37.8
sgRNA knockout: sgXBP1, 10000 nM | 63.3 | 79.714 | 51.3

CCN1CCN(c2ccc(Nc3cc(N(C)C(=O)Nc4c(Cl)c(OC)cc(OC)c4Cl)ncn3)cc2)CC1 [BGJ398]
relative cell number
Conditions | BT-20 | SKBR3 | ZR-75-1
sgRNA knockout: sgATF3, 10 nM | 104 | 82.7 | 112
sgRNA knockout: sgATF3, 100 nM | 99.2 | 85.5 | 90.2
sgRNA knockout: sgATF3, 1000 nM | 90.5 | 93.1 | 92.2
sgRNA knockout: sgATF3, 10000 nM | 86.5 | 78 | 71
sgRNA knockout: sgATF4, 10 nM | 93.5 | 97.3 | 76.2
sgRNA knockout: sgATF4, 100 nM | 98.7 | 90 | 106
sgRNA knockout: sgATF4, 1000 nM | 89.6 | 88.4 | 76.2
sgRNA knockout: sgATF4, 10000 nM | 90.6 | 72.6 | 82.5
sgRNA knockout: sgATF6, 10 nM | 107 | 81.6 | 46.2
sgRNA knockout: sgATF6, 100 nM | 92.6 | 88.4 | 112
sgRNA knockout: sgATF6, 1000 nM | 76.8 | 86.9 | 47.2
sgRNA knockout: sgATF6, 10000 nM | 88 | 59.6 | 69.8
sgRNA knockout: sgATG7, 10 nM | 96.2 | 76.7 | 110
sgRNA knockout: sgATG7, 100 nM | 98.7 | 95.8 | 97.5
sgRNA knockout: sgATG7, 1000 nM | 86.7 | 77.2 | 64.1
sgRNA knockout: sgATG7, 10000 nM | 80.3 | 79.41 | 80.9
sgRNA knockout: sgERN1, 10 nM | 93.9 | 79.8 | 102
sgRNA knockout: sgERN1, 100 nM | 88.5 | 108 | 118
sgRNA knockout: sgERN1, 1000 nM | 87 | 94.2 | 110
sgRNA knockout: sgERN1, 10000 nM | 87.1 | 62 | 81
sgRNA knockout: sgHSF1, 10 nM | 89.2 | 83.5 | –
sgRNA knockout: sgHSF1, 100 nM | 86.1 | 100 | –
sgRNA knockout: sgHSF1, 1000 nM | 88.6 | 83.8 | –
sgRNA knockout: sgHSF1, 10000 nM | 80.8 | 71.3 | –
sgRNA knockout: sgHSF2, 10 nM | 100.7 | 91.5 | 118
sgRNA knockout: sgHSF2, 100 nM | 97.5 | 107 | 95
sgRNA knockout: sgHSF2, 1000 nM | 86.7 | 83.4 | 78.4
sgRNA knockout: sgHSF2, 10000 nM | 93.7 | 70.3 | 90.4
sgRNA knockout: sgKEAP1, 10 nM | 107 | 111 | –
sgRNA knockout: sgKEAP1, 100 nM | 81.5 | 102 | –
sgRNA knockout: sgKEAP1, 1000 nM | 91.8 | 67.3 | –
sgRNA knockout: sgKEAP1, 10000 nM | 74.1 | 69.3 | –
sgRNA knockout: sgNFE2L2, 10 nM | 93.7 | 86.4 | 107
sgRNA knockout: sgNFE2L2, 100 nM | 89.9 | 86.5 | 102
sgRNA knockout: sgNFE2L2, 1000 nM | 98.8 | 65.9 | 70.1
sgRNA knockout: sgNFE2L2, 10000 nM | 96.9 | 73 | 64.1
sgRNA knockout: sgSLC35F2, 10 nM | 94 | 106 | 59.2
sgRNA knockout: sgSLC35F2, 100 nM | 111 | 96.4 | 81.1
sgRNA knockout: sgSLC35F2, 1000 nM | 93.4 | 68.8 | 68.64
sgRNA knockout: sgSLC35F2, 10000 nM | 99.7 | 70.7 | 74.9
sgRNA knockout: sgXBP1, 10 nM | 110 | 94.6 | 97.1
sgRNA knockout: sgXBP1, 100 nM | 90.4 | 102 | 80.4
sgRNA knockout: sgXBP1, 1000 nM | 88.2 | 79.1 | 69.48
sgRNA knockout: sgXBP1, 10000 nM | 96.5 | 76.9 | 71.4
